Earlier results in patent publication US20060099208A1, “Method of potentiating the therapeutic action of monoclonal and polyclonal antibodies” (priority 2004, published 2006).
Entries after “also recorded” stand apart in the source; their conditions may differ. At least one structure is not confirmed: it was looked up by name or label, or the drawing left a doubt.

Tests used:
skin papilloma = conditions: mice; pure fatty acid or fatty acid rich oils
ascitic tumor cells = conditions: experimental animals; pure fatty acid or fatty acid rich oils
tumor cells [1] = conditions: in-vitro; for killing of tumor cells: tumor cells and normal cells from American Type Culture Collection
hepatoma = conditions: rats; pure fatty acid or fatty acid rich oils
tumor cells [2] = conditions: mixed culture, normal and tumor cells grown together

Question: Which “growth of skin papilloma” value (skin papilloma) does the source give for `CC/C=C\C/C=C\C/C=C\C/C=C\C/C=C\C/C=C\CCC(=O)O` [DHA, docosahexaenoic acid] here?
Answer: Its value is “inhibit the growth”.

Question: And the “growth of ascitic tumor cells in the peritoneum” value (ascitic tumor cells)?
Answer: The value was “inhibit”.

Question: What about the tumor cell proliferation (tumor cells [1]) of the same compound?
Answer: Its tumor cell proliferation is “decrease tumor cell proliferation”.

Question: What about the “killing of tumor cells” value (tumor cells [1]) of the same compound?
Answer: The value was “only tumor cells were killed; also recorded: selectively kill the tumor cells”.

Question: And the “formation and growth of hepatoma” value (hepatoma)?
Answer: The value was “inhibit”.

Question: And the selective tumoricidal action (tumor cells [2])?
Answer: The selective tumoricidal action was “effective to some extent”.

Question: What does the source list for `CC/C=C\C/C=C\C/C=C\C/C=C\C/C=C\CCCC(=O)O` [EPA, eicosapentaenoic acid]?
Answer: growth of skin papilloma (skin papilloma): inhibit the growth; growth of ascitic tumor cells in the peritoneum (ascitic tumor cells): inhibit; tumor cell proliferation (tumor cells [1]): decrease tumor cell proliferation; killing of tumor cells (tumor cells [1]): only tumor cells were killed; also recorded: selectively kill the tumor cells; formation and growth of hepatoma (hepatoma): inhibit; selective tumoricidal action (tumor cells [2]): effective to some extent
